Assay results published in paper PMC2855708.
These are yes or no findings as the source states them, for the method shown. In cells and extracts the contact can be indirect. Some results given as binding are weak or reduced against the parent protein; the word gives no strength. For some of these results: Sequences can lack the tags named with a protein.

By UniProt entry, the sequences of proteins in these tests, tags left out.
UniProt Q62083: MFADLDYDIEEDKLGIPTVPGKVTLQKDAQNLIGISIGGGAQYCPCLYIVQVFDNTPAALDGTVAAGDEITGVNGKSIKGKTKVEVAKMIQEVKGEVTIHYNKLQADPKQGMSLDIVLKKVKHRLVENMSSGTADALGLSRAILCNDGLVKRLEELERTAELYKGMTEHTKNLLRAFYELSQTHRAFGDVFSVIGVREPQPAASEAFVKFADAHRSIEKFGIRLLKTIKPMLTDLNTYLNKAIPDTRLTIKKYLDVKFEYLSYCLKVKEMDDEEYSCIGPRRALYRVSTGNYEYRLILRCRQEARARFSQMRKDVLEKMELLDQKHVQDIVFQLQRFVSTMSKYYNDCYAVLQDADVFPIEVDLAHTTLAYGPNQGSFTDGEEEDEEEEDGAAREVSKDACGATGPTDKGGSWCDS

Columns and labels:
hNephrin-flag (human) = molecular target: T1, hNephrin-flag (human) (UniProt O60500); experiment: co-IP; HEK 293T cells transiently transfected, stimulated with PMA for 0, 5 and 15 min; lysed in RIPA buffer; Nephrin-flag precipitated with Flag-beads at 4°C, washed 5 times with RIPA buffer; blotted for GFP, Myc or Flag
T1 sequence: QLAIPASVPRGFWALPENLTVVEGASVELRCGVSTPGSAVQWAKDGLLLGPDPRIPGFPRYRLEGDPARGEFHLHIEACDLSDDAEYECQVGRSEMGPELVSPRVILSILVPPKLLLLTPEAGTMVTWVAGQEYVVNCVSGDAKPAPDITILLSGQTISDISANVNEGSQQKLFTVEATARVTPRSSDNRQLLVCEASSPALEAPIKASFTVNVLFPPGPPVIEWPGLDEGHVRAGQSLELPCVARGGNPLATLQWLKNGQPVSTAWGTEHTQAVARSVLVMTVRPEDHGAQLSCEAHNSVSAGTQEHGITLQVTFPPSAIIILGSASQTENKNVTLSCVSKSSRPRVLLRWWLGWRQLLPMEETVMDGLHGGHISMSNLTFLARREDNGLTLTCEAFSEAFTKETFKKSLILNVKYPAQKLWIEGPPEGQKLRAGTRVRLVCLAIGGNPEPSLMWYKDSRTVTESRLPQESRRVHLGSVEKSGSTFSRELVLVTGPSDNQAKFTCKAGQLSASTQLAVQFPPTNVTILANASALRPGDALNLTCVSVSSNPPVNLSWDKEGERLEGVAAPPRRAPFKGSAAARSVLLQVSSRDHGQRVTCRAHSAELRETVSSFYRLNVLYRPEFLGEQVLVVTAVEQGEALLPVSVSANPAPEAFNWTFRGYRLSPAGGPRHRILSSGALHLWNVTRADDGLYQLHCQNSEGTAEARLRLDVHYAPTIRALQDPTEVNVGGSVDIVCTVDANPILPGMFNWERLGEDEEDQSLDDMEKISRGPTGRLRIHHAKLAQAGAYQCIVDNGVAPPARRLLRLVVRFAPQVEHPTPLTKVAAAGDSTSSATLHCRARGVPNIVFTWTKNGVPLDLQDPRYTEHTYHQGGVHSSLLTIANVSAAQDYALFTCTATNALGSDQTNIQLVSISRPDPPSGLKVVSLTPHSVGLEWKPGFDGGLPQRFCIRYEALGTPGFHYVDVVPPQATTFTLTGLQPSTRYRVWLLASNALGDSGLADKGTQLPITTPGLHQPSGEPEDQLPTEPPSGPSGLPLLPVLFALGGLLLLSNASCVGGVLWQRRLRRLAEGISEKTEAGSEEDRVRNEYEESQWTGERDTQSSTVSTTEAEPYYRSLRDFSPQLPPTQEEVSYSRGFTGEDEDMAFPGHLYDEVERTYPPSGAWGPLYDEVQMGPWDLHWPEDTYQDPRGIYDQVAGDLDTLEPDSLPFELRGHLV

mNephrin-flag (mouse) = molecular target: T2, mNephrin-flag (mouse) (UniProt Q9QZS7); experiment: as above
T2 sequence: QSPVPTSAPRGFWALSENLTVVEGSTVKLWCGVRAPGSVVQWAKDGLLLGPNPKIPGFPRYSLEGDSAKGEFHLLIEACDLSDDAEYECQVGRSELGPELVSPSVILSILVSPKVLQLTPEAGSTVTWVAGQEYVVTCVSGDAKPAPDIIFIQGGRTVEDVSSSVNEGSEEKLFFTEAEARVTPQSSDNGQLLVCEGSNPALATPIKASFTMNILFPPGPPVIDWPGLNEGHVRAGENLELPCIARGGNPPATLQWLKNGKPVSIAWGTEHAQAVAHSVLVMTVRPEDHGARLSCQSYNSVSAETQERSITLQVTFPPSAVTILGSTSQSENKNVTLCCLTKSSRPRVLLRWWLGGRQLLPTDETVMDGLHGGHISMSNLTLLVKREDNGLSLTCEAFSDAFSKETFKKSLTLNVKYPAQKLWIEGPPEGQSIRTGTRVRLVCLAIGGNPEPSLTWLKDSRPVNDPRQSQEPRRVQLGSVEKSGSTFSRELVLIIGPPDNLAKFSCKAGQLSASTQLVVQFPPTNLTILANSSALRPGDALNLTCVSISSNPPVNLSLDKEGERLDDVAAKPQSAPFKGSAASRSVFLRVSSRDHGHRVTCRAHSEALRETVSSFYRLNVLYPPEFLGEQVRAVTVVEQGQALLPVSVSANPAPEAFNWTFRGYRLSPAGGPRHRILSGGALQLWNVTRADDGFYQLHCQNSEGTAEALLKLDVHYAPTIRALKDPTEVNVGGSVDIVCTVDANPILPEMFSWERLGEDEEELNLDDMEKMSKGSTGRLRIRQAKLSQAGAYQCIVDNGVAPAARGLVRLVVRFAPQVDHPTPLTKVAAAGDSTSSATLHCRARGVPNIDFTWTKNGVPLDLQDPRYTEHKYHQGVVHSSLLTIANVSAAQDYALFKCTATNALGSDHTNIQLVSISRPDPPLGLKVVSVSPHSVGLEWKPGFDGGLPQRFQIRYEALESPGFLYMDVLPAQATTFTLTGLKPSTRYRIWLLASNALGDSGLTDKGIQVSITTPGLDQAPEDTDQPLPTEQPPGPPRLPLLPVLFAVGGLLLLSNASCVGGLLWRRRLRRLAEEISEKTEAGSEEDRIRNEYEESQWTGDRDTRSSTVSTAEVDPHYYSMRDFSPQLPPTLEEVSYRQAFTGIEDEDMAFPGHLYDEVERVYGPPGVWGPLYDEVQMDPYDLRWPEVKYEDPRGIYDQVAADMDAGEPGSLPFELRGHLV

[1] = molecular target: T3, endogenous nephrin (murine podocytes) (mouse (endogenous in murine podocytes)) (UniProt Q9QZS7); experiment: co-IP; PKCα+/+ murine podocytes treated with PMA for 0, 5 and 15 min; 500 µg total cell lysate with anti-nephrin or anti-PICK1 antibody and sepharose-A beads in IP-buffer (25 mM Tris-HCl pH 7.5, 1 mM DTT, 30 mM MgCl2, 40 mM NaCl, 0.5% NP-40) overnight at 4°C; blotted for PKCα, nephrin and PICK1
T3 sequence: T2 sequence

[2] = molecular target: endogenous PICK1 (murine podocytes) (mouse (endogenous in murine podocytes)) (UniProt Q62083); experiment: as above

| binding (hNephrin-flag (human)) | binding (mNephrin-flag (mouse)) | binding [1] | binding [2] | Substance |
| --- | --- | --- | --- | --- |
| binds | binds |  |  | PKCα-GFP (from UniProt P17252 1-672) (enzyme) |
|  |  | binds | binds | endogenous PKCα (murine podocytes) (from UniProt P20444 1-672) (enzyme) |
